# Experimental data: the supplement of paper PMC10849652
# Chains of the proteins cited; added tags and fusions are not shown. Lines headed by an entry give the natural chain unless they say otherwise; changes in a name come on top.
# UniProt Q10472: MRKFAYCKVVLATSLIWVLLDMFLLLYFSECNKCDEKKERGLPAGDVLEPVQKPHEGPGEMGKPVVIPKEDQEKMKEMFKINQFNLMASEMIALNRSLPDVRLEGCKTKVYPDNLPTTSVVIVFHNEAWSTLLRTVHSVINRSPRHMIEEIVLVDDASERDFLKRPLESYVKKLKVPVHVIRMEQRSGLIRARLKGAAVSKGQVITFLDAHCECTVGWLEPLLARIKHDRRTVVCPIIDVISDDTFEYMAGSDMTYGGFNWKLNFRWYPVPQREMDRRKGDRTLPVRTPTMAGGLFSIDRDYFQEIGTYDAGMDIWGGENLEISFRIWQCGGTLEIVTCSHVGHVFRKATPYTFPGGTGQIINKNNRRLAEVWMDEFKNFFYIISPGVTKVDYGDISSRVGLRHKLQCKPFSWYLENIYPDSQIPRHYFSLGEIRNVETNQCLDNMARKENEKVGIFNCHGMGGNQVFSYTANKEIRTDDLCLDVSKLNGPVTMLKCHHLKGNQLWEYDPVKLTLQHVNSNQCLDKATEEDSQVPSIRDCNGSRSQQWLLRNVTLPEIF
# UniProt Q8TEQ6: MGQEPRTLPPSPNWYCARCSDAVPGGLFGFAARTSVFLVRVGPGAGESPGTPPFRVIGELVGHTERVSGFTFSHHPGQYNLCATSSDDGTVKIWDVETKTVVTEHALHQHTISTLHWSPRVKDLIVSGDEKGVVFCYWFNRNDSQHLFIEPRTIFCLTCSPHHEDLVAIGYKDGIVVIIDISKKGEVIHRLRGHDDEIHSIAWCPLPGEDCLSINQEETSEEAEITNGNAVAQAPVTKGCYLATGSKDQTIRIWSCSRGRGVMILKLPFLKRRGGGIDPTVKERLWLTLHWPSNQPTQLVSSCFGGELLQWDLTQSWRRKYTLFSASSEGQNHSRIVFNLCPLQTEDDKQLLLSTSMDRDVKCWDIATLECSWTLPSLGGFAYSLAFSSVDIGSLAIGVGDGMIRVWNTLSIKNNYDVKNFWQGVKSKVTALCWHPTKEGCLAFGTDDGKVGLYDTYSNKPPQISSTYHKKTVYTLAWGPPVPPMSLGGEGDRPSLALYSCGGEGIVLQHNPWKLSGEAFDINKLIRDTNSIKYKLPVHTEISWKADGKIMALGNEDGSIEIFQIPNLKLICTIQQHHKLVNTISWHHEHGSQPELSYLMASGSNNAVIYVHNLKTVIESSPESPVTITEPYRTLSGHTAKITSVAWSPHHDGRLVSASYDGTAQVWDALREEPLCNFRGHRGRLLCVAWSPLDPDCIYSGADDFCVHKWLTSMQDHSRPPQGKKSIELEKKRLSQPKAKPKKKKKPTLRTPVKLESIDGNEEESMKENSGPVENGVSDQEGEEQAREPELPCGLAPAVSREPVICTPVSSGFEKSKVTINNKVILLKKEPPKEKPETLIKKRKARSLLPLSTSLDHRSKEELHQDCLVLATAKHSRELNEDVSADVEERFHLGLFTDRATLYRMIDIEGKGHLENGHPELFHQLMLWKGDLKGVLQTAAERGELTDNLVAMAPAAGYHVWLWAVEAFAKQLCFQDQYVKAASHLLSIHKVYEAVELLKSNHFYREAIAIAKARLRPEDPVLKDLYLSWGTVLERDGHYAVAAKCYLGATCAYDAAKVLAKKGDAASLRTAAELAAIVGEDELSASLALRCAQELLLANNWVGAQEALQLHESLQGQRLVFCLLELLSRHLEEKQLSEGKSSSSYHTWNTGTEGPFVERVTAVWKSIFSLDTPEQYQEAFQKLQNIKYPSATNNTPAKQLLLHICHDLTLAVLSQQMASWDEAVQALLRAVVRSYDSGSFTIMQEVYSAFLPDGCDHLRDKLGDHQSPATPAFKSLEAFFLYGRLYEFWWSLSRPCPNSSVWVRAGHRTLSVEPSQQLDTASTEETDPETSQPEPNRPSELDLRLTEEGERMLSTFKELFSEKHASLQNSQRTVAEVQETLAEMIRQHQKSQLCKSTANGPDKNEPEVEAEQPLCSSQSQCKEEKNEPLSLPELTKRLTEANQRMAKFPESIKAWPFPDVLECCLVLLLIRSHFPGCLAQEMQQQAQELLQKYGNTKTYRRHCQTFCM
# UniProt Q96NB1: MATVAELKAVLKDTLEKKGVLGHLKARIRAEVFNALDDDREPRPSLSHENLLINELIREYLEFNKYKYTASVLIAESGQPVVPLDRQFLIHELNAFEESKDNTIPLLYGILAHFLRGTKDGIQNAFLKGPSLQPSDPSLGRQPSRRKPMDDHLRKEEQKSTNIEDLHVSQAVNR
# UniProt P31150: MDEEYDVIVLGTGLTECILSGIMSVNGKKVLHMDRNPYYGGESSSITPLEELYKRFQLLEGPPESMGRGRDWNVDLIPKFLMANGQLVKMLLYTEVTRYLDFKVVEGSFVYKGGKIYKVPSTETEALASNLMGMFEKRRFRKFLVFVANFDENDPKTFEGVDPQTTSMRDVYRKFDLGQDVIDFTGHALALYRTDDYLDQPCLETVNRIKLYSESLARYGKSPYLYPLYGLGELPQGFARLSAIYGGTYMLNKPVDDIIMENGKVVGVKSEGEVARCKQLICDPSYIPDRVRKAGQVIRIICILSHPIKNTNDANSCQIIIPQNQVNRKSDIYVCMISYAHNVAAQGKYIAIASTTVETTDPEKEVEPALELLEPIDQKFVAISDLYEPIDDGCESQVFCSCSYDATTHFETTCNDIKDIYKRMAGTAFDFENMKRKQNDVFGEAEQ
# UniProt Q10471: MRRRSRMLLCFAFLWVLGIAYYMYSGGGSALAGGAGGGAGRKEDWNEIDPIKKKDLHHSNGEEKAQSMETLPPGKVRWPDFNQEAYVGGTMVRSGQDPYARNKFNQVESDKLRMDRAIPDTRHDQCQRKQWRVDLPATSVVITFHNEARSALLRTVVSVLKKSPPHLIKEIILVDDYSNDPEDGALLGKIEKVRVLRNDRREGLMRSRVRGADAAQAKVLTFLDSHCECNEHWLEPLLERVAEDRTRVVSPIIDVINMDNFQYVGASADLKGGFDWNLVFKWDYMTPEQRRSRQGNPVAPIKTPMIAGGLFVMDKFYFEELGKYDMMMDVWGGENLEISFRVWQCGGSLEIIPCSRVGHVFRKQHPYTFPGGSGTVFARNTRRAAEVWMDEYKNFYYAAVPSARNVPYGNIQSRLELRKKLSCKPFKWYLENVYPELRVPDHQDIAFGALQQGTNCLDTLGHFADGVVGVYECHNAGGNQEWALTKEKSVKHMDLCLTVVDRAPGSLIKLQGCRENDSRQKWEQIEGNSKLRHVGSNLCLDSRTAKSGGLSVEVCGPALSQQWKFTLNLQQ
# UniProt P15976: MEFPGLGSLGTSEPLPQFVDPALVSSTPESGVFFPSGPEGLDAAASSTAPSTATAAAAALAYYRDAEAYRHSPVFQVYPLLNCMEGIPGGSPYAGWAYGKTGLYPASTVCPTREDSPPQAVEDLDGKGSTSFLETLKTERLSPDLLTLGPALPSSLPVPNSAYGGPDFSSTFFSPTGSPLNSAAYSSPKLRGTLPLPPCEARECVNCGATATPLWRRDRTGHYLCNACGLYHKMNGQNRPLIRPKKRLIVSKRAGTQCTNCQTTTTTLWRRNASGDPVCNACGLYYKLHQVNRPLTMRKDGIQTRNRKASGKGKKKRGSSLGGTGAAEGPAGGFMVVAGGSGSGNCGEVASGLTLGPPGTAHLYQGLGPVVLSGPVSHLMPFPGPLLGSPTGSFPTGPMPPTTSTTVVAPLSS
# UniProt P0CL80: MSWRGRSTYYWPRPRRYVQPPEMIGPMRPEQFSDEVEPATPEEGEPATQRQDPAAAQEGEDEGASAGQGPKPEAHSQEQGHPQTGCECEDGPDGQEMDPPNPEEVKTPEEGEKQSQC
# UniProt Q92538, whole entry, looked up: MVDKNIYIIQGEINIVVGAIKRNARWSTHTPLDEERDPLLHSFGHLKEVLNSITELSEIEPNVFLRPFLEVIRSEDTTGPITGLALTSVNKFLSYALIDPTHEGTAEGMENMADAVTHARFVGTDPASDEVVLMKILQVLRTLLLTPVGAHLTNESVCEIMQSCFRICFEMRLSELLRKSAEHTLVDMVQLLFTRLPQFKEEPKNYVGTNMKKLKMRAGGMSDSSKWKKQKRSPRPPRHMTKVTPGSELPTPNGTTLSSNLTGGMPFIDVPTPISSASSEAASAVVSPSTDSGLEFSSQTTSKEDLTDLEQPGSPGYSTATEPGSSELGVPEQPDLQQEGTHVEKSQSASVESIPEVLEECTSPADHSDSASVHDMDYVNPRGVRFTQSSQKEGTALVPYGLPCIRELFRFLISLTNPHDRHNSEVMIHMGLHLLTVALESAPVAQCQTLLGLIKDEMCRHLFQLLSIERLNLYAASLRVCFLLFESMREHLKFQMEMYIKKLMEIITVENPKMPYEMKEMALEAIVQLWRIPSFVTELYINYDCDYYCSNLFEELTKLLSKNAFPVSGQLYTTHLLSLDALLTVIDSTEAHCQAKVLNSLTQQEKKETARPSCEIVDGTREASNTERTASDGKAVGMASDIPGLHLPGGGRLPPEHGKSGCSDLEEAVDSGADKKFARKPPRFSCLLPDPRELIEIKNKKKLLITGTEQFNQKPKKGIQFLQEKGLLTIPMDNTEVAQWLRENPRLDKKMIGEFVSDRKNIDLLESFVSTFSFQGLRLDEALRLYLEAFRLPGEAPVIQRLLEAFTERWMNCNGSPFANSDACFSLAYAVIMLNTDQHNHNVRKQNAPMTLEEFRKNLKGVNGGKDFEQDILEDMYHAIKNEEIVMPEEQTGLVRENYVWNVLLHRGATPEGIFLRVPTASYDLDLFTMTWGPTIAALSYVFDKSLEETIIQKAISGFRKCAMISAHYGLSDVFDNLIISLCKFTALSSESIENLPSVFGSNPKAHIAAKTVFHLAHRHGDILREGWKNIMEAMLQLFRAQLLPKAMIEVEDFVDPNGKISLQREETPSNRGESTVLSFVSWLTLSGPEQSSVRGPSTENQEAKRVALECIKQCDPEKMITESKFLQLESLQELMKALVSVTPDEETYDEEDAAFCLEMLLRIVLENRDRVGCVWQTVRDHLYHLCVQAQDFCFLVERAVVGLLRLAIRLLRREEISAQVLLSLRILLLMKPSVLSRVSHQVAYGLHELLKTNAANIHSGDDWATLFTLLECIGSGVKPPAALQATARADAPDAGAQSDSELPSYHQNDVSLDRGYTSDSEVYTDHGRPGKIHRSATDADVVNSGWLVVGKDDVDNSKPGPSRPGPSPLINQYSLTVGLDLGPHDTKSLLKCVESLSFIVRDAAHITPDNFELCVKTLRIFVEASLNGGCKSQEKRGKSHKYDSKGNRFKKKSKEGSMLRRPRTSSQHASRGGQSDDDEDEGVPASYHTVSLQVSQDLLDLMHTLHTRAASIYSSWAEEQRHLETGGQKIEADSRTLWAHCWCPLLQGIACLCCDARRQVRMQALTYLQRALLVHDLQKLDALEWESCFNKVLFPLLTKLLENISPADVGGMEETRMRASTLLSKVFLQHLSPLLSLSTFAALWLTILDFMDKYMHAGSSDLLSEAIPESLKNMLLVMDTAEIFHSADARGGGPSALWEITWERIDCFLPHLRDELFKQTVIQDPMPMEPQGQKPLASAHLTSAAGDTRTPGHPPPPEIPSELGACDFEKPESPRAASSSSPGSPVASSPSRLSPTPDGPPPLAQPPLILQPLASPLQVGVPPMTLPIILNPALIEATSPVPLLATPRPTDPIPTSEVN
# UniProt P15407: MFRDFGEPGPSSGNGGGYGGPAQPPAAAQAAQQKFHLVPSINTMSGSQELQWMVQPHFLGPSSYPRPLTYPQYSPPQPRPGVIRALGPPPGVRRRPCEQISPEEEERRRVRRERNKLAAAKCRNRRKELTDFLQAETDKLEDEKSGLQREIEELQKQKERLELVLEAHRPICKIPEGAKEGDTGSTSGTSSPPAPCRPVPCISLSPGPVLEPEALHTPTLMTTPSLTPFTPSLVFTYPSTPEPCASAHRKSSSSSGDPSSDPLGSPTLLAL
# UniProt Q9UQC2, whole entry, looked up: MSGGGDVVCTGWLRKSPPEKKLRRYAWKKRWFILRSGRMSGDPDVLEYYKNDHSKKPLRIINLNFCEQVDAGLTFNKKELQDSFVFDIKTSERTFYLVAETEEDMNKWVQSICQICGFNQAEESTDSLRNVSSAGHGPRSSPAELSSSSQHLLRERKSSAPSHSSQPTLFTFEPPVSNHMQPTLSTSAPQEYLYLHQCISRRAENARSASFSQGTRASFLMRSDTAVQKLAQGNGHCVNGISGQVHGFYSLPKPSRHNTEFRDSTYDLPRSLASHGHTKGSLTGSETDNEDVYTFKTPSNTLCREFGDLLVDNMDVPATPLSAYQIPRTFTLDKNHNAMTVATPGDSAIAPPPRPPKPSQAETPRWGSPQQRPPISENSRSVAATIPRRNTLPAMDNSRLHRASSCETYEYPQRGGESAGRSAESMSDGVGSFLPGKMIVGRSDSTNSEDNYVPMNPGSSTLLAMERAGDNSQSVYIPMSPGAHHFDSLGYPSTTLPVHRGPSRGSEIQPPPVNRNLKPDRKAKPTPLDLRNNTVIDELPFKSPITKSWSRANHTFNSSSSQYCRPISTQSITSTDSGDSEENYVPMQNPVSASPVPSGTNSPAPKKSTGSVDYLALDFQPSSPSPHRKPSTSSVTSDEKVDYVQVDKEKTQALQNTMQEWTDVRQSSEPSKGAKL
# Some of the results follow.
# Compound: C[C@H](C1=CC=C(C=C1)C(=O)NC2=C3C=CNC3=NC=C2)N
# Assay: log2 fold change, soluble protein after heating vs DMSO (PISA); higher = thermal stabilisation; K562 cells, 10 uM, 30 min; active = over 0.2 and 3.5 SD of the protein, either way, in both replicates (recomputed)
# Procedure, shortened: (§1)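 For each measurement, 10 μM compound was applied for 30 min to K562 cells at 2×10^6 cells/mL. Aliquots were heated for 3 min across 48°C-58°C, pooled, and extracted in PBS with 0.5% NP-40 at 4°C; the supernatant after 21,000xg for 90 min was soluble protein. This was quantified by TMTpro 16plex LC-MS/MS with channel sums equalised, and thermal stability was reported relative to control samples from duplicates, on a log2 fold-change scale.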
row,Target,log2 fold change
1,GALNT1 (UniProt Q10472),inactive: -0.013
2,GABARAPL1 isoform 2 (UniProt Q9H0R8),inactive: -0.045
3,GEMIN5 (UniProt Q8TEQ6),inactive: 0.02
4,FOPNL (UniProt Q96NB1),inactive: -0.042
5,GDI1 (UniProt P31150),inactive: -0.054
6,GALNT2 (UniProt Q10471),inactive: -0.015
7,GCC2 (UniProt Q8IWJ2),inactive: 0.246
8,GATA1 (UniProt P15976),inactive: 0.046
9,GAGE12F (UniProt P0CL80),inactive: 0.081
10,FUCA2 (UniProt Q9BTY2),inactive: -0.05
11,GBF1 (UniProt Q92538),inactive: 0.08

# Compound: C[C@H](Nc1ncnc2nc[nH]c12)c1cc2cccc(Cl)c2c(=O)n1-c1ccccc1 [duvelisib]
# Assay: as above
# Procedure, shortened: as §1
row,Target,log2 fold change
1,GALNT10 (UniProt Q86SR1),inactive: -0.094
2,FOSL1 (UniProt P15407),inactive: -0.11
3,FPGS (UniProt Q05932),inactive: 0.164
4,GAB2 (UniProt Q9UQC2),active: -0.836
5,FOPNL (UniProt Q96NB1),inactive: 0.025

# Compound: Cc1cc(Nc2cc(CN3CCOCC3)c3nc(C)c(Cc4ccc(Cl)cc4F)n3n2)n[nH]1 [gandotinib]
# Assay: as above
# Procedure, shortened: as §1
row,Target,log2 fold change
1,GALNT11 (UniProt Q8NCW6),inactive: 0.045
2,GEMIN6 (UniProt Q8WXD5),inactive: 0.034
3,GALNT10 (UniProt Q86SR1),inactive: 0.124
4,FOSL1 (UniProt P15407),inactive: 0.221
5,GALNT4 (UniProt Q8N4A0),inactive: -0.153
6,FNTB (UniProt P49356),inactive: 0.169
7,FPGS (UniProt Q05932),inactive: 0.054
8,GAB2 (UniProt Q9UQC2),inactive: -0.071
9,FOXK1 (UniProt P85037),active: -1.34
10,GAPVD1 isoform 6 (UniProt Q14C86),inactive: -0.081
11,FUCA1 (UniProt P04066),inactive: 0
12,GCSH (UniProt P23434),inactive: 0.043
13,GCLM (UniProt P48507),inactive: -0.15
14,GALK1 isoform 2 (UniProt P51570),inactive: -0.087
15,GCDH (UniProt Q92947),inactive: 0.076
16,GDPD1 (UniProt Q8N9F7),inactive: 0.012
17,GEMIN2 (UniProt O14893),inactive: 0.02

row,Target,log2 fold change
1,GABPA (UniProt Q06546),inactive: -0.029
2,GARS1 (UniProt H7C443),inactive: -0.066
3,GATD1 (UniProt Q8NB37),inactive: 0.052
4,GHDC (UniProt Q8N2G8),inactive: 0.002
5,GGT7 (UniProt Q9UJ14),inactive: -0.03
6,GALC (UniProt P54803),inactive: 0.008
7,GALNT1 (UniProt Q10472),inactive: 0.012
8,GABARAPL1 isoform 2 (UniProt Q9H0R8),inactive: 0.078
9,GEMIN5 (UniProt Q8TEQ6),inactive: -0.082
10,FOPNL (UniProt Q96NB1),inactive: 0.189
11,GDI1 (UniProt P31150),inactive: -0.049
12,GALNT2 (UniProt Q10471),inactive: -0.024
13,GCC2 (UniProt Q8IWJ2),inactive: 0.081
14,GATA1 (UniProt P15976),inactive: 0.112
15,GAGE12F (UniProt P0CL80),inactive: 0.072
16,FUCA2 (UniProt Q9BTY2),inactive: 0.041
17,GBF1 (UniProt Q92538),inactive: -0.197

# Compound: Cc1cc(SCc2sc(-c3ccc(C(F)(F)F)cc3)nc2C)ccc1OCC(=O)O
# Assay: as above
# Procedure, shortened: as §1
row,Target,log2 fold change
1,GALNT11 (UniProt Q8NCW6),inactive: -0.061
2,GEMIN6 (UniProt Q8WXD5),inactive: 0.034
3,GALNT10 (UniProt Q86SR1),inactive: -0.057
4,FOSL1 (UniProt P15407),inactive: 0.056
5,GALNT4 (UniProt Q8N4A0),inactive: 0.036
6,FNTB (UniProt P49356),inactive: -0.043
7,FPGS (UniProt Q05932),inactive: 0.101
8,GAB2 (UniProt Q9UQC2),inactive: 0.181
9,FOXK1 (UniProt P85037),inactive: -0.148
10,GAPVD1 isoform 6 (UniProt Q14C86),inactive: 0.147
11,FUCA1 (UniProt P04066),inactive: -0.044
12,GCSH (UniProt P23434),inactive: 0.026
13,GCLM (UniProt P48507),inactive: 0.06
14,GALK1 isoform 2 (UniProt P51570),inactive: 0.056
15,GCDH (UniProt Q92947),inactive: -0.021
16,GDPD1 (UniProt Q8N9F7),inactive: -0.033
17,GEMIN2 (UniProt O14893),inactive: -0.013

row,Target,log2 fold change
1,GABPA (UniProt Q06546),inactive: 0.068
2,GATD1 (UniProt Q8NB37),inactive: 0.033
3,GHDC (UniProt Q8N2G8),inactive: -0.039
4,GGT7 (UniProt Q9UJ14),inactive: -0.091
5,GALC (UniProt P54803),inactive: 0
6,GALNT1 (UniProt Q10472),inactive: 0.004
7,GABARAPL1 isoform 2 (UniProt Q9H0R8),inactive: 0.026
8,GEMIN5 (UniProt Q8TEQ6),inactive: 0.055
9,FOPNL (UniProt Q96NB1),inactive: 0.093
10,GDI1 (UniProt P31150),inactive: -0.009
11,GALNT2 (UniProt Q10471),inactive: 0.022
12,GCC2 (UniProt Q8IWJ2),inactive: 0.048
13,GATA1 (UniProt P15976),inactive: -0.071
14,GAGE12F (UniProt P0CL80),inactive: 0.03
15,FUCA2 (UniProt Q9BTY2),inactive: 0.014
16,GBF1 (UniProt Q92538),inactive: 0.041
